Reference: the supplement of paper PMC3334620
The full ranking holds about 33,000 sequences; the median of “E-score (-0.5 to 0.5)” is about -0.015, and the highest 2% start at about 0.3. This is one part of the list.

molecular target: T1, Abf1 (UniProt P14164); test: PBM E-score (8-mer binding enrichment) (E-score (-0.5 to 0.5)); higher = stronger / more preferred TF binding; conditions: protein concentration: 200 nM; construct: GST-full length
T1 sequence: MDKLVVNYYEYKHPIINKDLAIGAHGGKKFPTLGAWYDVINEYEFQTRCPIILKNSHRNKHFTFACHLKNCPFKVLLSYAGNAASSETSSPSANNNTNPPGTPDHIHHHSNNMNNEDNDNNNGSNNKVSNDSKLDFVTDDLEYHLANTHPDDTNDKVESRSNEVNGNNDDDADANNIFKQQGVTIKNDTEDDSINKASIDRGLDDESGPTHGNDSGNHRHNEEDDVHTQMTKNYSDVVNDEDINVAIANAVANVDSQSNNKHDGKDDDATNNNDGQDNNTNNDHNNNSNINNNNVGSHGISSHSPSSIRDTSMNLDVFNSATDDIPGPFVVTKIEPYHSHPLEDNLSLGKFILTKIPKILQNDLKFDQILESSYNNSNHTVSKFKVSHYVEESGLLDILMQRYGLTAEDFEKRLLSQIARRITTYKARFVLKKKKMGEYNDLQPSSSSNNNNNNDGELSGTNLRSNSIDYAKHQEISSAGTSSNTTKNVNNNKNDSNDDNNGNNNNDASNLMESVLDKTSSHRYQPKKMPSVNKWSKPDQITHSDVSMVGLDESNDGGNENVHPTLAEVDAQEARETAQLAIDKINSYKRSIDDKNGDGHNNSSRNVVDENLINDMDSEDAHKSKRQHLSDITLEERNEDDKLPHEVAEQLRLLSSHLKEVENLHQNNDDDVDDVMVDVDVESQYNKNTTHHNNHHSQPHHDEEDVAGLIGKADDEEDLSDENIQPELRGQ
Procedure, shortened: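 The E-score, a modified Wilcoxon-Mann-Whitney statistic, was computed by the Universal PBM Analysis Suite for every ungapped eight-base word pooled with its reverse complement. Scans behind it were normalised with masliner after bound GST-tagged yeast transcription factors were detected with fluorescent anti-GST. The proteins, at about 100-200 nM, had been applied to universal all-10-mer Agilent arrays made double-stranded by primer extension.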

| Sequence | PBM E-score |
| --- | --- |
| CCTTCTAA | -0.103 |
| ATATCATG | 0.297 |
| ATTATTAC | 0.112 |
| CATGAATG | 0.0163 |
| ATGTGCAG | -0.316 |
| CCTAGGGC | -0.229 |
| CGTGGGCC | -0.0349 |
| AGCAAAAT | 0.101 |
| CTGGACGA | 0.211 |
| CGGAACAA | 0.0683 |
| AAAACGGC | 0.101 |
| CGGTCTTA | -0.228 |
| AATGTTAC | 0.0858 |
| AGTCGGTC | -0.242 |
| GTCACGAA | 0.402 |
| CGGACAAA | -0.0756 |
| CACATACC | -0.0269 |
| GGTGGCGA | 0.0562 |
| GAACTTAC | 0.0577 |
| AGCTTCTC | -0.11 |
| ATACCTGG | -0.0475 |
| CGATGTGA | 0.181 |
| CGAAGACG | -0.0838 |
| AACGTTGT | 0.0987 |
| TCCAAACA | -0.0574 |

| Sequence | PBM E-score |
| --- | --- |
| GACAAGAC | 0.134 |
| CGCTTTTC | -0.0402 |
| CAGTGAGA | 0.0837 |
| TAAGATAA | 0.00285 |
| CTGTTGTC | -0.062 |
| AATCAGCC | -0.191 |
| TTCTTCAA | 0.0319 |
| CTCTGGCA | -0.104 |
| CTTTTACC | -0.0639 |
| GTTTATGA | 0.11 |
| CGTCTTAA | 0.232 |
| AGGGTACA | 0.0602 |
| ACAGGGTC | -0.361 |
| ATCTTGAA | 0.163 |
| AGTGCCGA | 0.00668 |
| GAGATAGC | 0.0834 |
| GAACTTCA | -0.174 |
| GGTGTCAA | -0.252 |
| CGCCTCAC | -0.00998 |
| GCTAAAAC | -0.0678 |
| CCCGCTAG | -0.157 |
| CAGAGTTC | -0.228 |
| GGTACAAC | 0.153 |
| CTCTGCGC | 0.00942 |
| AGTATTGC | -0.131 |

Some of the entries above, reformatted.
CGCTTTTC
  PBM E-score = -0.0402
CAGTGAGA
  PBM E-score = 0.0837
TAAGATAA
  PBM E-score = 0.00285
CTGTTGTC
  PBM E-score = -0.062

(listing goes on)

| Sequence | PBM E-score |
| --- | --- |
| AGGACGGG | -0.115 |
| TAGCGTAA | -0.0339 |
| CTAGCCTA | -0.0519 |
| CGCCCTTC | -0.295 |
| CCTGACGA | 0.214 |
| ATTAGATA | 0.189 |
| AGCCTCCA | -0.276 |
| CAACCAAC | -0.0662 |
| TTCGGAAA | -0.148 |
| CCAGGCAC | 0.0493 |
| CCCTCTCG | -0.249 |
| GAATTTCA | -0.0552 |
| CTCATTGC | -0.0922 |
| GGGTTCGA | -0.0673 |
| ACATCTAC | 0.114 |
| GGGTCAAC | -0.0715 |
| TGAGGGCA | -0.268 |
| GAAGGAAA | -0.138 |
| TCCTACCA | -0.101 |
| ATTCCTTG | 0.0574 |
| GCAGTTAA | -0.0142 |
| ATTGAACC | -0.0857 |
| CAAATGCG | 0.117 |
| AATATCCC | 0.0982 |
| ATTAGGGC | -0.111 |

| Sequence | PBM E-score |
| --- | --- |
| AACGCTGT | 0.00818 |
| AACGTCAG | -0.109 |
| CATCGTTC | 0.0962 |
| AGCCGCAC | -0.0599 |
| GGAGCGAC | 0.0672 |
| CGTTGGGC | 0.0715 |
| GAACTCTA | -0.0122 |
| GCTCCCCC | -0.418 |
| CCAAAAAA | 0.268 |
| AGGCTGAT | -0.21 |
| ACGCATCG | 0.152 |
| ACCACATA | 0.222 |
| CATACGTA | 0.293 |
| GTGATCTA | 0.407 |
| TCAATTAA | 0.22 |
| ACTCTTGA | 0.0206 |
| GGGCATAA | -0.0266 |
| GAACGTAC | 0.126 |
| ATAACTCA | 0.198 |
| CTCTTTAA | 0.0145 |
| TAAACGCA | -0.0182 |
| AGATGAAT | -0.134 |
| AGGGTAAG | -0.00605 |
| GCTAGGTA | -0.015 |
| CCGGACTA | -0.22 |

| Sequence | PBM E-score |
| --- | --- |
| TCCCACGA | 0.326 |
| CGGCATAC | 0.0158 |
| AGGCTTAC | -0.197 |
| AAAAACGT | 0.0618 |
| AACAAATA | 0.191 |
| ATTACACG | 0.161 |
| AAGTTGTG | -0.0478 |
| CACACGAC | 0.295 |
| CAGCTCGA | -0.191 |
| AGTCGCCG | 0.0893 |
| AAGTTGTC | 0.138 |
| CGGGGATC | -0.193 |
| CTGTTCCC | -0.155 |
| GAAATCAC | 0.322 |
| AAAATTCT | 0.061 |
| AGTACACG | 0.24 |
| CATACTAC | 0.0808 |
| GGTAACAA | 0.177 |
| GACGCGTA | 0.026 |
| AGAAACGG | -0.0326 |
| GCTGATTA | 0.266 |
| ACCCCGCT | -0.158 |
| CACTCGGA | 0.0541 |
| TACCTGCA | -0.195 |
| ACTCCTGA | 0.00759 |

| Sequence | PBM E-score |
| --- | --- |
| AACCACGT | 0.0317 |
| GATAGATC | 0.0955 |
| GAGAAAGC | -0.0241 |
| CCAGTTGA | -0.0925 |
| AGACACTA | -0.024 |
| GATAGGGA | -0.191 |
| ACCCAAAT | 0.0159 |
| CCGCTACC | -0.132 |
| AATCATAA | 0.206 |
| TAAGTGCA | -0.0218 |
| ATGTGGTC | 0.00542 |
| ATTCCAAG | -0.0317 |
| GGATGCTA | -0.174 |
| ATGTCCCA | 0.136 |
| ATTCGCGG | 0.0888 |
| ACATCTCC | -0.0911 |
| CCTTCGCC | -0.199 |
| ATGCTCAC | 0.0338 |
| TAGGTAAA | -0.226 |
| CGGGTCGC | -0.133 |
| TGTAGAAA | 0.00325 |
| TCTCATAA | -0.0621 |
| CAATTTAG | 0.0307 |
| AAGTCTAA | -0.136 |
| TGCTACAA | 0.077 |

| Sequence | PBM E-score |
| --- | --- |
| AGCTTCCC | -0.162 |
| AACCACTT | -0.0232 |
| CCGGATTC | -0.228 |
| CTCCTACA | -0.194 |
| AACCTGGA | -0.0808 |
| CCCCTCAG | -0.292 |
| CATACAAC | -0.0666 |
| AAACGGTG | 0.129 |
| AAACAATT | 0.0212 |
| CTTAATGC | 0.133 |
| CGGTATAG | -0.191 |
| CATCCTTC | 0.0215 |
| TACGCCCA | -0.15 |
| GGACGGCC | 0.143 |
| AGGGGAGC | -0.294 |
| CACCGGAG | -0.23 |
| ACAAACCC | -0.0208 |
| AACAATAT | 0.187 |
| CTAATTAA | 0.155 |
| CAAAGTCA | 0.00908 |
| AGATGCAC | 0.0654 |
| CTATTCGA | -0.0482 |

Reformatted in CSV form: part of the list above.
Sequence,PBM E-score
CCGGATTC,-0.228
CTCCTACA,-0.194
AACCTGGA,-0.0808
CCCCTCAG,-0.292
CATACAAC,-0.0666
